# According to the supplement of paper PMC10338343:
# ± gives the standard deviation. Only a part is listed here, and it is no random draw. Many of these values have a large error.
# Test system: EfPiwi piRISC loaded with piRNA #1 (26 nt)
# Test: pre-steady-state target cleavage rate (min^-1); guide: piRNA #1 5'p-UGAGGUAGUAGGUUGUAUAGUAUCCA; MIWI and MILI are mouse PIWI proteins and EfPiwi is from a freshwater sponge; tags in brackets are library labels; higher = faster piRNA-guided slicing of the target
# Conditions: auxiliary factor: 500 nM Ephydatia muelleri Gtsf1
# Method in brief: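 The pre-steady-state cleavage rate was obtained by Cleave-'n-Seq with a burst-and-steady-state fit. A transcribed, DNA-blocked target RNA library (0.1 nM) was mixed with 1 nM active affinity-purified piRISC carrying one synthetic guide, with or without 500 nM GTSF1 partner protein, in HEPES–potassium acetate buffer at 33 °C for 0–8 or 0–960 min. Uncleaved targets were sequenced and normalised to depth and to weakly complementary targets, with three trials pooled and k3 capped at 0.0001 min^-1.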
row,Sequence,pre-steady-state target cleavage rate
1,GGAGACCUAACUAUACACCCUACUACCUCA,0.00682 ± 0.0033
2,GGAGUGGAUACUAUACUACCUUCUACCUCA,0.00331 ± 0.0022
3,GGAGAGGAAACUAUACAACCUAGUACCUCA,0.00323 ± 0.0013
4,GGAGACGAUACAAUACAACCUUCUACCUCA,0.00327 ± 0.0022
5,GGAGUGGUUACUAUACAACCUACUACCACA,0.00384 ± 0.0022
6,GGAGAGGCUACUAUACAACCUACUACCUCA,0.0629 ± 0.022
7,GGAGACCUUACUAUACAAGGUACUACCUCA,0.0022 ± 0.0022
8,GGAGUGGAUUACUAUACAACCUACUACCUCA,0.00938 ± 0.0037
9,GGAGACCUUACUAUACAGCCUACUACCUCA,0.068 ± 0.028
10,GGAGACCUAACUAUACAACCUACUACACUCA,0.00419 ± 0.0048
11,GGAGACGAUACUAAACAACCUACUAGCUCA,0.0015 ± 0.0026
12,GGAGACCAUACUAUACAACCUACUACUCA,0.00387 ± 0.0024
13,GGAGACCUAUGUAUACAACUUACUACCUCA,0.000827 ± 0.007
14,GGAGACCUAACUAUACAUACCUACUACCUCA,0.000386 ± 0.018
15,GGAGUGCAUACUAUAGAACCUACUACCUCA,0.00125 ± 0.0023
16,GGAGACCUAUGAUAUGUUCCUACUACCCCA,0.000529 ± 0.012
17,GGAGACCAUACUAUACAUGGUACUACCUCA,0.000473 ± 0.0056
18,GGAGUGGAUACUUUACUACCUACUACCUCA,0.00437 ± 0.0036
19,GGAGUGGAUACUAUAGAACGUACUACCUCA,0.00156 ± 0.0015
20,GGAGAGGAUACUAUACUACCUACUACCUGA,0.00353 ± 0.002

row,Sequence,pre-steady-state target cleavage rate
1,GGAGACCUAUCUUUACAACCUACUUCCUCA,0.00199 ± 0.005
2,GGAGACCAUACUAUACCACCUACUACCUCA,0.00807 ± 0.004
3,GGAGACCUAUCUAUACAACCUACCACCUCA,0.00396 ± 0.0045
4,GGAGACCUAUGAUAUGUUGCUACUAGGUCA,0.000578 ± 0.0081
5,GGAGACGAUUCUAUACAACCUACUACCUGA,0.00463 ± 0.0026
6,GGAGACCAUACUAUAGAACCUACUUCCUCA,0.00272 ± 0.0029
7,GGAGACCAUAGUAUACAACCUACUACGUCA,0.00463 ± 0.0028
8,GGAGACCUUACUAUUCAACCAACUACCUCA,0.00109 ± 0.0052
9,GGAGUGGAUACUAUACAAGCUACUACCACA,0.0039 ± 0.0017
10,GGAGUGGAUCACUAUACAACCUACUACCUCA,0.00417 ± 0.0043
11,GGAGACGUUAGUAUACAACCUACUACCUCA,0.00686 ± 0.0036
12,GGAGACCAUACUAUACAACUACUACCUCA,0.00486 ± 0.0035
13,GGAGUGGUAUCUAUACAACCUACUACCUCA,0.0613 ± 0.023
14,GGAGACCUUACUUUACAACCUACUACGUCA,0.00198 ± 0.004
15,GGAGACCAAACUUUACAACCUACUACCUCA,0.011 ± 0.0057
16,GGAGACCUAUGAAUACAAGCAACUACCUCA,0.000173 ± 0.022
17,GGAGACCUUAGUAUACAACGUACUACCUCA,0.000604 ± 0.0044
18,GGAGUGGAUACUAUACAACCUACUUCCUCA,0.00544 ± 0.0029
19,GGAGAGGAUACUACUACAACCUACUACCUCA,0.00619 ± 0.0042
20,GGAGACCUAUCUAUACAAGCUACUUCCUCA,0.00291 ± 0.0037

# A second format for part of the listing above:
row	Sequence	pre-steady-state target cleavage rate
3	GGAGACCUAUCUAUACAACCUACCACCUCA	0.00396 ± 0.0045
4	GGAGACCUAUGAUAUGUUGCUACUAGGUCA	0.000578 ± 0.0081
